No constants are given. Whether binding was seen depends on the method and setting. In cells and extracts the contact can be indirect. Some entries that bind do so weakly or less than the wild type.
B1: Matrin 3 (protein, UniProt P43243 1-847)
chain: MSKSFQQSSLSRDSQGHGRDLSAAGIGLLAAATQSLSMPASLGRMNQGTARLASLMNLGMSSSLNQQGAHSALSSASTSSHNLQSIFNIGSRGPLPLSSQHRGDADQASNILASFGLSARDLDELSRYPEDKITPENLPQILLQLKRRRTEEGPTLSYGRDGRSATREPPYRVPRDDWEEKRHFRRDSFDDRGPSLNPVLDYDHGSRSQESGYYDRMDYEDDRLRDGERCRDDSFFGETSHNYHKFDSEYERMGRGPGPLQERSLFEKKRGAPPSSNIEDFHGLLPKGYPHLCSICDLPVHSNKEWSQHINGASHSRRCQLLLEIYPEWNPDNDTGHTMGDPFMLQQSTNPAPGILGPPPPSFHLGGPAVGPRGNLGAGNGNLQGPRHMQKGRVETSRVVHIMDFQRGKNLRYQLLQLVEPFGVISNHLILNKINEAFIEMATTEDAQAAVDYYTTTPALVFGKPVRVHLSQKYKRIKKPEGKPDQKFDQKQELGRVIHLSNLPHSGYSDSAVLKLAEPYGKIKNYILMRMKSQAFIEMETREDAMAMVDHCLKKALWFQGRCVKVDLSEKYKKLVLRIPNRGIDLLKKDKSRKRSYSPDGKESPSDKKSKTDGSQKTESSTEGKEQEEKSGEDGEKDTKDDQTEQEPNMLLESEDELLVDEEEAAALLESGSSVGDETDLANLGDVASDGKKEPSDKAVKKDGSASAAAKKKLKKVDKIEELDQENEAALENGIKNEENTEPGAESSENADDPNKDTSENADGQSDENKDDYTIPDEYRIGPYQPNVPVGIDYVIPKTGFYCKLCSLFYTNEEVAKNTHCSSLPHYQKLKKFLNKLAEERRQKKET

By UniProt entry, the sequences of proteins in these tests, tags left out.
UniProt P12270: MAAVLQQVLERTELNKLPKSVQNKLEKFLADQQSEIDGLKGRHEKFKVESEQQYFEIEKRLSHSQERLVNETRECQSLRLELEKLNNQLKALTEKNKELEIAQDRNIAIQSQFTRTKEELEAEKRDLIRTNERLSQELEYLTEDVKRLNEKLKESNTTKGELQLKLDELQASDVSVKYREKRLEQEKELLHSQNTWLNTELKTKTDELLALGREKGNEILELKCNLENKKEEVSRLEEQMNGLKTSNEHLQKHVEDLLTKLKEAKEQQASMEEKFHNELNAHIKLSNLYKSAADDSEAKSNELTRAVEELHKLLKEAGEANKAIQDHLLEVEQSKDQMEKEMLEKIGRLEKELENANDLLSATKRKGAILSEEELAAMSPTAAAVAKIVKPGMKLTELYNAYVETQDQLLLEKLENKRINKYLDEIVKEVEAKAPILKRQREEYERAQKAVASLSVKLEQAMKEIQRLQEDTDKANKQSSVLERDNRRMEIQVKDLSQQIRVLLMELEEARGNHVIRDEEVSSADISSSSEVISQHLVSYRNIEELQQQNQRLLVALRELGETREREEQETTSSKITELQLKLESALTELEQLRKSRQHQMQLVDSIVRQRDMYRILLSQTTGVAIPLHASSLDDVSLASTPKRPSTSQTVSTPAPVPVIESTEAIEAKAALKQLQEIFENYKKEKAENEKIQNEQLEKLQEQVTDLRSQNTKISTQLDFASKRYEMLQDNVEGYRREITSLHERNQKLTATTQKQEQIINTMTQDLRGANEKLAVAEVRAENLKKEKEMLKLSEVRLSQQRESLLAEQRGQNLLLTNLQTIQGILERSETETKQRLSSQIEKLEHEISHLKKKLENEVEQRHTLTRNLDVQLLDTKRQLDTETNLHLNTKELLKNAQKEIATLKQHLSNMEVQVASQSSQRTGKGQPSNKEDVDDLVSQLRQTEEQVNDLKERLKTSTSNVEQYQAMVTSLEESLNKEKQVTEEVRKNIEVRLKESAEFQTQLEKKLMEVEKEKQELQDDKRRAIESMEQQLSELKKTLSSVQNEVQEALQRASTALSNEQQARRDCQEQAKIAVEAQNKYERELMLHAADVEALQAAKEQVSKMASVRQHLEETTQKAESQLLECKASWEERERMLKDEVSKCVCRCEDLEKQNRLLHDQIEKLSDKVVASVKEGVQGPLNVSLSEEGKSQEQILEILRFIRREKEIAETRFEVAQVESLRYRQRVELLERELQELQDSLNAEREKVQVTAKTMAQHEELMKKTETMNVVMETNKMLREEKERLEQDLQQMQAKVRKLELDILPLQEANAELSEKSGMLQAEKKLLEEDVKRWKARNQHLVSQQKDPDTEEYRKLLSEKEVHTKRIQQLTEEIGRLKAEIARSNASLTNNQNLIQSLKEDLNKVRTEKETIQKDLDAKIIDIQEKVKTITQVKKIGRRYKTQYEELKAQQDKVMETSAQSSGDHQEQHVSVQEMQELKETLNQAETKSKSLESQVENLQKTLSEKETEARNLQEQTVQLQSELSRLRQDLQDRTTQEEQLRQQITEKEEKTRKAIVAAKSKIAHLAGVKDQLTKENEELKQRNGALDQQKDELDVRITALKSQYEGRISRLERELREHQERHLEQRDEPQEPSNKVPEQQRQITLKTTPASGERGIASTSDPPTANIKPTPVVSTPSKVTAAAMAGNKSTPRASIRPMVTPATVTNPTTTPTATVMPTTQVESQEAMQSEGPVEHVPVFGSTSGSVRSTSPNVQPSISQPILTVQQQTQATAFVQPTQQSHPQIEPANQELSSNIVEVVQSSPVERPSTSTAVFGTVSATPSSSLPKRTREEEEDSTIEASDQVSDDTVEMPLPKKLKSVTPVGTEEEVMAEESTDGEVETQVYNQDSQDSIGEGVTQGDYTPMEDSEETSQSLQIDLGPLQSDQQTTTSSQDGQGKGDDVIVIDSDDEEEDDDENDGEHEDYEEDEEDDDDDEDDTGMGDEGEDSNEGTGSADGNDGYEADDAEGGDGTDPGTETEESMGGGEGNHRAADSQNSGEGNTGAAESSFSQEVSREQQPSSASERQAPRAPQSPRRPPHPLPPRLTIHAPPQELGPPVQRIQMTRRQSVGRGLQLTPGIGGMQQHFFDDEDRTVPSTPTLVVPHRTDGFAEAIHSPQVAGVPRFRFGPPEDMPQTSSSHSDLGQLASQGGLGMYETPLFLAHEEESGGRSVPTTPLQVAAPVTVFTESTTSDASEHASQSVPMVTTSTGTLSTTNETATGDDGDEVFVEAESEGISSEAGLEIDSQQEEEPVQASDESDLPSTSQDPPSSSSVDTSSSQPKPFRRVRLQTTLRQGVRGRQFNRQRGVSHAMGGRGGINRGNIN
UniProt O60318: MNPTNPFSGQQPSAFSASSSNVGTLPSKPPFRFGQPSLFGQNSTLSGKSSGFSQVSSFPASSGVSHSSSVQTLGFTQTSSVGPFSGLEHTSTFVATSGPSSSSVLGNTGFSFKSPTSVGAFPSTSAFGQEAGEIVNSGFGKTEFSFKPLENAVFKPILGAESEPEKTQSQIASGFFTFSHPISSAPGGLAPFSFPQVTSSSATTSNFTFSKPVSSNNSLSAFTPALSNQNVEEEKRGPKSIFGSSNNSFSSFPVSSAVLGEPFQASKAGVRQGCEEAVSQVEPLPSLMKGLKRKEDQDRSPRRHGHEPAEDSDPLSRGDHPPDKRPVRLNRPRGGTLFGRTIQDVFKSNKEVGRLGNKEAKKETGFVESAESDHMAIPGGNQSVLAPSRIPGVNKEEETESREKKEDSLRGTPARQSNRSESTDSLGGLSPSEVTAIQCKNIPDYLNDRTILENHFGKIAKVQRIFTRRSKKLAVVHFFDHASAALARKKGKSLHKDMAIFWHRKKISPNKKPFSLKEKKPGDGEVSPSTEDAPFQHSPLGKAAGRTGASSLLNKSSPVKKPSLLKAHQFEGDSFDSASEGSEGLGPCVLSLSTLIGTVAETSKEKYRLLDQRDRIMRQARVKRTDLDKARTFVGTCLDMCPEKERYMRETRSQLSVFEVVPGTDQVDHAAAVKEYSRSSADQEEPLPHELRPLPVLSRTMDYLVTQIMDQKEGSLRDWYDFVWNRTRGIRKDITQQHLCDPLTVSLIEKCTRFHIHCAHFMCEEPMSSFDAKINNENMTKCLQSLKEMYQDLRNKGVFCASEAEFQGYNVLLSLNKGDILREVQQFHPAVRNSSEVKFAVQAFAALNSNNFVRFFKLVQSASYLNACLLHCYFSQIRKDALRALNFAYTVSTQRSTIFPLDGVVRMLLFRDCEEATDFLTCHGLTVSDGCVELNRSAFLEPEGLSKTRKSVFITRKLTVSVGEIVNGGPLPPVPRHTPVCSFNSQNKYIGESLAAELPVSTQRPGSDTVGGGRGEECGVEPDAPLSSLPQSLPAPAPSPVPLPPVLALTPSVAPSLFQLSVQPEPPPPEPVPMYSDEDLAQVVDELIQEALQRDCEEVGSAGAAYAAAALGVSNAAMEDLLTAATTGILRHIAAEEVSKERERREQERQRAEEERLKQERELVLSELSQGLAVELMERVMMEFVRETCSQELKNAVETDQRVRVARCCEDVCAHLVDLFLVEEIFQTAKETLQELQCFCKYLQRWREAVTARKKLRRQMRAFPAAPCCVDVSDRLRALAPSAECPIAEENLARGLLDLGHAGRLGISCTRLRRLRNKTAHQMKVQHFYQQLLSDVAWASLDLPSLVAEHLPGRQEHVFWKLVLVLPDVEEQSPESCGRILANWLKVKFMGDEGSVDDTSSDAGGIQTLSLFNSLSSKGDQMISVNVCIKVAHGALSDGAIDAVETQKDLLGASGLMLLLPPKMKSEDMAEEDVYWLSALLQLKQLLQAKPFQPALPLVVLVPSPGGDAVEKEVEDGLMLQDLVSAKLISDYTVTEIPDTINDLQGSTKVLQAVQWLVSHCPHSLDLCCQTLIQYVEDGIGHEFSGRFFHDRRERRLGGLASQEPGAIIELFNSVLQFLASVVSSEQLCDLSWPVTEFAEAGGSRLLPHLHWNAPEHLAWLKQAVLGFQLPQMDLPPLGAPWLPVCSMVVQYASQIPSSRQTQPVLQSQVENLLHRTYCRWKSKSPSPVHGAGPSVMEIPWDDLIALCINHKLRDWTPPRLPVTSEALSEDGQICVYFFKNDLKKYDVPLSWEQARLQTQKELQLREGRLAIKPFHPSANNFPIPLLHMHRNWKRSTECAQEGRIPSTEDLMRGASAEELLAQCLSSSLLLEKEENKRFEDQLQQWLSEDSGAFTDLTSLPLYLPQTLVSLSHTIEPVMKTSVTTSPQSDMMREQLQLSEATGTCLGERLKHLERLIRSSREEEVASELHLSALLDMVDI

Target: Tpr (translocated promoter region), endogenous (human (endogenous in U-2 OS)) (UniProt P12270)
Test: co-IP; standard coimmunoprecipitation assay; benzonase-treated lysate, 20 mM Tris pH 8.0, 150 mM NaCl, 0.5% NP40, 1 mM EDTA, 1 mM MgCl2; GFP-Trap or Protein G-Sepharose with antibodies, overnight at 4 °C; which was used is not told in the text shown

Row | Molecule | binding
1 | Minichromosome maintenance complex component 3 associated protein (from UniProt O60318 1-1980) | binds
2 | B1 | binds
